Results on one substance are retold here after paper PMC5693993.

The target of the assay is T1, Unc93B1 overexpressed in a macrophage cell line (UniProt Q8VCW4).
T1 sequence: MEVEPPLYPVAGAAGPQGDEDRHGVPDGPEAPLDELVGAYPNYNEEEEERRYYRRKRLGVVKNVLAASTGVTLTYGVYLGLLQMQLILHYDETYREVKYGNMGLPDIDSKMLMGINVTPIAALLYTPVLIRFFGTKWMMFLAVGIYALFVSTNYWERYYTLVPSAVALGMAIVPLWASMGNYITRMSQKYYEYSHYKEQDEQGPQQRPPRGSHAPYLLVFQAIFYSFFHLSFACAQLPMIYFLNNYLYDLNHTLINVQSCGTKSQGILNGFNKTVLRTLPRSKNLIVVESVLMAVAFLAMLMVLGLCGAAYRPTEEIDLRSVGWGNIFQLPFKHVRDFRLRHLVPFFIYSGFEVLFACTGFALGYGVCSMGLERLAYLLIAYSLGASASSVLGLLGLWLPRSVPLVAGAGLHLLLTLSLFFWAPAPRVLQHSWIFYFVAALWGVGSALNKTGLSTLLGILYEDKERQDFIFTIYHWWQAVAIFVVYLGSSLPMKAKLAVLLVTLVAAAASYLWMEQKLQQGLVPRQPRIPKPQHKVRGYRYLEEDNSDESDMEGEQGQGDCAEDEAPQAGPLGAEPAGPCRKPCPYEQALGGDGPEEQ
The experiment in a line: co-IP; immunoprecipitation of Unc93B1 from a macrophage cell line transduced to overexpress it; immunoblot. Background: In western blotting, separated proteins are transferred to a membrane and probed.

These are yes or no findings as the source states them, for the method shown. Binding seen in cells or lysates may run through a third protein.

As to Rab5, the binding result is on record as “no binding”.
